# In the supplement of paper PMC10470496:
# Where a name gives a salt, the structure may show the parent alone. The list shows a part of the results. Single values are uncertain, as repeats are few or missing.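 The three strains are clinical Candida auris isolates from the CDC resistance isolate bank, from clades III, IV and I, grown in RPMI-1640 at 35°C. Growth is background-corrected OD600 relative to vehicle-only wells on the same plate; a hit meant over 50% inhibition in at least two strains plus a plate-corrected B-score above 0.1.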
# Assays:
# Assay in all cases: growth relative to vehicle control (OD600 ratio) (fraction); higher = less inhibition
# Conditions in all cases: 24 h
# C. auris AR-384 = system: C. auris AR-384
# C. auris AR-386 = system: C. auris AR-386
# C. auris AR-387 = system: C. auris AR-387
Structure (SMILES),growth (C. auris AR-384; 1 µM),growth (C. auris AR-384; 10 µM),growth (C. auris AR-386; 1 µM),growth (C. auris AR-386; 10 µM),growth (C. auris AR-387; 1 µM),growth (C. auris AR-387; 10 µM)
"CCCS(=O)(=O)Nc1ccc(F)c(C(=O)c2c[nH]c3ncc(-c4ccc(Cl)cc4)cc23)c1F [Vemurafenib (PLX4032, RG7204)]",0.96,0.69,0.98,1.14,0.79,0.91
Nc1ccn([C@H]2CC[C@@H](CO)O2)c(=O)n1 [Zalcitabine],0.9,1.36,1.45,1.08,1.24,1.1
O=C1Nc2ccc(Cl)cc2[C@@](C#CC2CC2)(C(F)(F)F)O1 [Efavirenz],1.03,1.06,0.88,0.9,0.7,0.74
O=C1N=C(O)NC1(c1ccccc1)c1ccccc1 [Phenytoin Sodium],0.59,0.73,0.7,0.73,0.82,0.99
O=C(NC[C@H]1CN(c2ccc(N3CCOCC3=O)cc2)C(=O)O1)c1ccc(Cl)s1 [Rivaroxaban],0.97,0.9,0.85,0.88,0.83,1.01
CC1=NN(c2ccc(C)c(C)c2)C(=O)/C1=N\Nc1cccc(-c2cccc(C(=O)O)c2)c1O [Eltrombopag],1.35,1.38,0.94,1.45,1.04,1.37
Cc1c(N(C)C)c(=O)n(-c2ccccc2)n1C [Amidopyrine],0.87,0.84,0.61,0.85,0.83,0.75
CC(C)(O/N=C(\C(=O)N[C@@H]1C(=O)N2C(C(=O)[O-])=C(C[n+]3ccccc3)CS[C@H]12)c1csc(N)n1)C(=O)O [Ceftazidime Pentahydrate],1.48,1.46,1.25,1.26,1.39,1.13
CCOC(=O)n1ccn(C)c1=S [Carbimazole],0.95,0.91,0.79,1.01,0.71,0.99
CCCCCC(=O)O[C@]1(C(C)=O)CC[C@H]2[C@@H]3CCC4=CC(=O)CC[C@]4(C)[C@H]3CC[C@@]21C [Hydroxyprogesterone caproate],0.99,0.88,0.55,0.88,0.89,0.8
Cc1c(Cl)cccc1Nc1ccccc1C(=O)O [Tolfenamic Acid],0.68,0.8,0.92,0.73,0.89,0.63
CCC[C@@H]1C[C@@H](C(=O)N[C@@H]([C@H]2O[C@H](SC)[C@H](O)[C@@H](O)[C@H]2O)[C@H](C)Cl)N(C)C1 [Clindamycin],1.34,1.33,1.34,1.38,1.36,1.25
CC[C@H](C)[C@H](N)C1=N[C@H](C(=O)N[C@@H](CC(C)C)C(=O)N[C@H](CCC(=O)O)C(=O)N[C@H](C(=O)N[C@H]2CCCCNC(=O)[C@H](CC(N)=O)NC(=O)[C@@H](CC(=O)O)NC(=O)[C@H](Cc3cnc[nH]3)NC(=O)[C@@H](Cc3ccccc3)NC(=O)[C@H]([C@@H](C)CC)NC(=O)[C@@H](CCCN)NC2=O)[C@@H](C)CC)CS1 [Bacitracin],0.88,0.82,0.45,0.7,0.65,1.01
Cc1cc2c(s1)Nc1ccccc1N=C2N1CCN(C)CC1 [Olanzapine],0.97,1.05,0.79,1.27,1.01,1.11
NC(=O)[C@@H]1CSSCCC(=O)N[C@@H](CCCCN=C(N)N)C(=O)NCC(=O)N[C@@H](CC(=O)O)C(=O)N[C@@H](Cc2c[nH]c3ccccc23)C(=O)N2CCC[C@H]2C(=O)N1 [Eptifibatide Acetate],0.55,0.64,0.7,0.95,0.81,0.72
COc1c(C)c2c(c(O)c1C/C=C(\C)CCC(=O)OCCN1CCOCC1)C(=O)OC2 [Mycophenolate Mofetil],0.94,1.32,1.39,0.84,1.07,1.05
Cc1nnc(SCC2=C(C(=O)O)N3C(=O)[C@@H](NC(=O)Cn4cnnn4)[C@H]3SC2)s1 [Cefazolin Sodium],1.21,1.21,1.38,1.35,1.52,1.35
CC(C)C[C@H](NC(=O)CNC(=O)c1cc(Cl)ccc1Cl)B1OC(=O)C(CC(=O)O)(CC(=O)O)O1 [Ixazomib Citrate (MLN9708)],0.76,0.86,0.68,0.84,0.82,0.94
COc1cc2nc(N3CCN(C(=O)C4COc5ccccc5O4)CC3)nc(N)c2cc1OC (stereo not drawn) [Doxazosin Mesylate],1.15,0.91,0.72,0.56,0.85,0.5
CN1[C@@H]2CC[C@H]1C[C@@H](OC(c1ccccc1)c1ccccc1)C2 [Benztropine mesylate],0.9,0.84,1.16,0.83,0.83,1.04
CC(=O)NS(=O)(=O)c1ccc(NC(=O)c2ccccc2C(=O)O)cc1 [Phthalylsulfacetamide],0.79,0.82,0.96,0.69,0.5,0.62
O=C([O-])c1ccccc1.[Na+] [Sodium benzoate],0.69,0.59,0.9,0.69,1,0.81

Structure (SMILES),growth (C. auris AR-384; 1 µM),growth (C. auris AR-384; 10 µM),growth (C. auris AR-386; 1 µM),growth (C. auris AR-386; 10 µM),growth (C. auris AR-387; 1 µM),growth (C. auris AR-387; 10 µM)
Nc1nc(N)nc(-c2cc(Cl)ccc2Cl)n1 [Irsogladine],0.94,0.89,0.7,0.79,0.9,0.86
CC(=O)Oc1cc2c(s1)CCN(C(C(=O)C1CC1)c1ccccc1F)C2 (stereo not drawn) [Prasugrel],0.65,0.89,0.63,0.85,0.7,0.79
CN1CCN(c2c(F)cc3c(=O)c(C(=O)O)cn4c3c2OCN4C)CC1 [Marbofloxacin],0.71,0.8,0.94,0.77,0.82,0.66
CO[C@H]1/C=C/O[C@@]2(C)Oc3c(C)c(O)c4c(c3C2=O)C2=NC3(CCN(CC(C)C)CC3)NC2=C(NC(=O)/C(C)=C\C=C\[C@H](C)[C@H](O)[C@@H](C)[C@@H](O)[C@@H](C)[C@H](OC(C)=O)[C@@H]1C)C4=O [Rifabutin],1.03,1.11,1.02,0.9,0.92,1.12
"O=c1[nH]cc(F)c(=O)[nH]1 [Fluorouracil (5-Fluoracil, 5-FU)]",0.94,1.05,1.32,1.24,1.02,0.91
N=C(N)N/N=C/c1c(Cl)cccc1Cl [Guanabenz Acetate],0.81,0.65,1,0.72,0.74,0.78
COc1cc([C@@H]2c3cc4c(cc3[C@@H](O[C@@H]3O[C@@H]5CO[C@@H](c6cccs6)O[C@H]5[C@H](O)[C@H]3O)[C@H]3COC(=O)[C@H]23)OCO4)cc(OC)c1O [Teniposide],0.78,0.77,0.68,0.66,0.66,0.71
CN(C)C/C=C/C(=O)Nc1cc2c(Nc3ccc(F)c(Cl)c3)ncnc2cc1O[C@H]1CCOC1 [Afatinib (BIBW2992)],0.72,0.7,0.9,0.58,0.9,0.97
CS(=O)(=O)c1ccc(C(=O)Nc2ccc(Cl)c(-c3ccccn3)c2)c(Cl)c1 [Vismodegib (GDC-0449)],0.87,1.25,1.2,0.83,0.96,1.12
O=C1C(O)=C([C@H]2CC[C@H](c3ccc(Cl)cc3)CC2)C(=O)c2ccccc21 [Atovaquone],1.05,1.01,0.9,0.72,1.01,0.76
CC(C)COc1ccc(CNC(=O)N(Cc2ccc(F)cc2)C2CCN(C)CC2)cc1 [Pimavanserin],1.2,1.16,0.87,0.94,0.58,0.98
COCCCC/C(=N\OCCN)c1ccc(C(F)(F)F)cc1 [Fluvoxamine maleate],0.96,1.14,1.36,1.3,1.18,0.96
CN(C)c1ccc(C(=C2C=CC(=[N+](C)C)C=C2)c2ccc(N(C)C)cc2)cc1 [Crystal Violet],1.25,2.44,0.81,1.33,1.25,1.03
Cc1ccc(F)c(NC(=O)Nc2ccc(-c3cccc4[nH]nc(N)c34)cc2)c1 [Linifanib (ABT-869)],1,0.68,0.58,0.74,0.91,0.86
CO[C@H]1C[C@@H]2CC[C@@H](C)[C@@](O)(O2)C(=O)C(=O)N2CCCC[C@H]2C(=O)O[C@H]([C@H](C)C[C@@H]2CC[C@@H](OC(=O)C(C)(CO)CO)[C@H](OC)C2)CC(=O)[C@H](C)/C=C(\C)[C@@H](O)[C@@H](OC)C(=O)[C@H](C)C[C@H](C)/C=C/C=C/C=C/1C,0.15,0.13,0.22,0.14,0.12,0.1
Cc1c(-c2ccc(O)cc2)n(Cc2ccc(OCCN3CCCCCC3)cc2)c2ccc(O)cc12 [Bazedoxifene Acetate],0.83,0.77,0.95,0.74,0.7,0.66
CNC(=O)c1ccc(Nc2ncc(C(F)(F)F)c(NCc3nccnc3N(C)S(C)(=O)=O)n2)cc1,0.72,0.86,0.77,0.86,0.68,0.74
O=c1cc[nH]c(=O)[nH]1 [Uracil],0.94,0.72,0.93,0.85,0.72,1.03
CNC(=O)[C@@H](NC(=O)[C@H](CC(C)C)[C@H](O)C(=O)NO)C(C)(C)C [Marimastat (BB-2516)],1.2,1.46,1.41,1.26,1.58,1.35
C[C@@H]1NC(=O)[C@@H](N)CNC(=O)[C@H](C2CCNC(=N)N2)NC(=O)/C(=C/NC(N)=O)NC(=O)[C@H](CNC(=O)CC(N)CCCN)NC1=O.N=C1NCC[C@H]([C@@H]2NC(=O)/C(=C/NC(N)=O)NC(=O)[C@H](CNC(=O)C[C@@H](N)CCCN)NC(=O)[C@H](CO)NC(=O)[C@@H](N)CNC2=O)N1 [Capreomycin Sulfate],1.01,1.37,0.94,1.26,0.76,1.11
CCN(c1cc(-c2ccc(CN3CCOCC3)cc2)cc(C(=O)NCc2c(C)cc(C)[nH]c2=O)c1C)C1CCOCC1 [Tazemetostat (EPZ-6438)],1.18,1.38,1.31,1.22,0.95,1.43
